Experimental data taken from patent publication US20150087004A1, “Microfabricated 3D Cell Culture System” (The Trustees of the University of Pennsylvania, priority 2012, published 2015).
At least one structure is not confirmed: it was looked up by name or label, or the drawing left a doubt.

System: Human umbilical vein endothelial cells (HUVECs)
Assay: Effect of anti-angiogenic inhibitors on angiogenic sprouting in 3D cell culture device
Assay type: cell-based

CCCCCCCCc1ccc(CCC(N)(CO)CO)cc1 [Fingolimod]
further sprout extension (100 nM Fingolimod given at Day 3, independent of cocktail (HFMVS or MVPS)): inhibited further sprout extension | sprout initiation (100 nM Fingolimod introduced at Day 0, independent of cocktail (HFMVS or MVPS)): abrogation of sprout initiation | filopodia-like protrusions in remaining sprout structures (100 nM Fingolimod, HFMVS or MVPS cocktail): nearly complete loss of filopodia-like protrusions
